Results are given in words; binding and its absence hold for the method and conditions named. Binding seen in cells or lysates may run through a third protein. Some binding calls cover weakened binding; strength is not graded here.
Molecular target: SNF2h-FLAG (Sf9) (human) (UniProt O60264)
Assay: co-IP; FLAG immunoaffinity purification: Sf9 nuclear extracts mixed at a 10:1 Acf1:SNF2h-FLAG volume ratio, bound to FLAG M2-affinity resin, washed with increasing KCl, eluted with 100 mM KCl and 1 mg/mL FLAG peptide; SDS-PAGE

By UniProt entry, the sequences of proteins in these tests, tags left out.
UniProt O60264: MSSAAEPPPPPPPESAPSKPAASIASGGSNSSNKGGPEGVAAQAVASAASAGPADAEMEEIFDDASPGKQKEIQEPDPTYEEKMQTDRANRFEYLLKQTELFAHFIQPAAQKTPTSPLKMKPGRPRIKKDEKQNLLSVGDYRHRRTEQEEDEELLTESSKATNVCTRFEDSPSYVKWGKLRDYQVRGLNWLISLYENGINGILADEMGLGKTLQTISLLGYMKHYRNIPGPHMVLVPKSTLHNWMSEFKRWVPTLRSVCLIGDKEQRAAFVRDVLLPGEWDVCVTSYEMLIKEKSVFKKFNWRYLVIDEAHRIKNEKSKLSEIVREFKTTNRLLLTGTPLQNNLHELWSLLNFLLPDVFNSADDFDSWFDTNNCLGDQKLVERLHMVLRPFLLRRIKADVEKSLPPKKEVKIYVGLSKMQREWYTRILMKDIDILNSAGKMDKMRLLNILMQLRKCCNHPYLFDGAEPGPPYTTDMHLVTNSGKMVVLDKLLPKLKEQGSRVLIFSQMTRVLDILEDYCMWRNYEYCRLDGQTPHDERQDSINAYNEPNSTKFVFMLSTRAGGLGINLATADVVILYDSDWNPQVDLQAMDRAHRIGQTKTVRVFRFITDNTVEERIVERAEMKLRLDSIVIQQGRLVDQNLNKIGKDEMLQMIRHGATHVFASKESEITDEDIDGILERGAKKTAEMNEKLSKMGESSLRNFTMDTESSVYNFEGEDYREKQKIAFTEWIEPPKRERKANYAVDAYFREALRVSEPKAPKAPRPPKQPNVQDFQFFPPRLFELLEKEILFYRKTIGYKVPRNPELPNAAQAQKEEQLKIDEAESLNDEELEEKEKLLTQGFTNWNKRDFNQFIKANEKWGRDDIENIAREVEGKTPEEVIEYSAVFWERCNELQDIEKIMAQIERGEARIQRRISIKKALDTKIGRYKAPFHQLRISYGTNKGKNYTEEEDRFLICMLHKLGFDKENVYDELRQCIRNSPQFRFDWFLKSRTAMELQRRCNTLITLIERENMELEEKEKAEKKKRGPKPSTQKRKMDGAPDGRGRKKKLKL
UniProt Q9NRL2: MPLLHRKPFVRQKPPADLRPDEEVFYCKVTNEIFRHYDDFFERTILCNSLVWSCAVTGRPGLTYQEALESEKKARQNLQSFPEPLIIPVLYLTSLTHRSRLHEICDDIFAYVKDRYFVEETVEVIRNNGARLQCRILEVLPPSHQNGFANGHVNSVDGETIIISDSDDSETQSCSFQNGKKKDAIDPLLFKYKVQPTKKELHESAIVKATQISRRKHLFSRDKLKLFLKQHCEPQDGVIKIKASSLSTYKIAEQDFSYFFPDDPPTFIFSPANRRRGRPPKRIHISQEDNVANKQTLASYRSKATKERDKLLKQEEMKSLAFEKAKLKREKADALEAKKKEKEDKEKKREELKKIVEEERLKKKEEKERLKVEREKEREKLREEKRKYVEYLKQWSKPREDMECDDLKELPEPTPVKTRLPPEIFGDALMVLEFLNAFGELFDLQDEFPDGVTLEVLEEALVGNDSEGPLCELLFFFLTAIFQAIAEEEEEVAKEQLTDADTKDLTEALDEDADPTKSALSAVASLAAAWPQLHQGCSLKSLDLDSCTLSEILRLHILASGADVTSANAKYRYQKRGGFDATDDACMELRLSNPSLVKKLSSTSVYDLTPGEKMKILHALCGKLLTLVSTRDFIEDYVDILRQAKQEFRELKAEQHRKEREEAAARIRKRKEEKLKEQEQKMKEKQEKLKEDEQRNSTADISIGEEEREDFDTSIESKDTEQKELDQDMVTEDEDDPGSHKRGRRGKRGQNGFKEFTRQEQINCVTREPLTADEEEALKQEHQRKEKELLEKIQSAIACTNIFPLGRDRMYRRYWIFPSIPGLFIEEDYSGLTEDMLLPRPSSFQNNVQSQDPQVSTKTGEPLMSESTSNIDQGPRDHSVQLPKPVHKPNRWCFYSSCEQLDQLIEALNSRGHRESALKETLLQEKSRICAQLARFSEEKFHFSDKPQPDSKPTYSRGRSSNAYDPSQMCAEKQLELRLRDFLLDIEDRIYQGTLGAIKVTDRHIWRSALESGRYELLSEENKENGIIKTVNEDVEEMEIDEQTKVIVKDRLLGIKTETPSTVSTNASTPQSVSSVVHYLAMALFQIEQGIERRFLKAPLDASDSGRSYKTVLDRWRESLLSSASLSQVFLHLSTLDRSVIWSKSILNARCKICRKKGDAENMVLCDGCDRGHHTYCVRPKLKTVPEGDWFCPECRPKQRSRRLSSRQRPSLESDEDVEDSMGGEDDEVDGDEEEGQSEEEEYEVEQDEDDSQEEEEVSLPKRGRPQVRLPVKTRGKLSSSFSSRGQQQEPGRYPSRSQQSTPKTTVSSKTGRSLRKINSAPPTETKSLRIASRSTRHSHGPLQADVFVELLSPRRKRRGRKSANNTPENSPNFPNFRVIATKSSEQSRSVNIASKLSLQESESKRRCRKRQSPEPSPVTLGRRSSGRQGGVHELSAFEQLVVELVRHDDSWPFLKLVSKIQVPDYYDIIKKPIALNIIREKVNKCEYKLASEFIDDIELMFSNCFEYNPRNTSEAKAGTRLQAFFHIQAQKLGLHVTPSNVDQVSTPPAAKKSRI

binding: binds
Substance: Acf1 (accessory subunit of human ACF) (from UniProt Q9NRL2 1-1556)
